{"sequences": {"note": "The chains behind the UniProt entries cited, without tags or fusion partners.", "UniProt Q86WV6": "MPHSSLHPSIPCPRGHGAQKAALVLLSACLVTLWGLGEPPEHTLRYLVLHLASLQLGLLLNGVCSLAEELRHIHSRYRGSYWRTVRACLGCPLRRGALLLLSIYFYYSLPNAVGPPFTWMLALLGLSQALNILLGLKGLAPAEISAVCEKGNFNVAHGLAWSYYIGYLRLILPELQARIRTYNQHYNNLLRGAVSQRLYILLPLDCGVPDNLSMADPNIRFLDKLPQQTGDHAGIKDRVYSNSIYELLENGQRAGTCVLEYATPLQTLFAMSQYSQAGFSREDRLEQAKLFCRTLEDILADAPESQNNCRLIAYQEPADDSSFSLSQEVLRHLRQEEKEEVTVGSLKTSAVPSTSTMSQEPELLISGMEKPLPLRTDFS", "UniProt Q8N884": "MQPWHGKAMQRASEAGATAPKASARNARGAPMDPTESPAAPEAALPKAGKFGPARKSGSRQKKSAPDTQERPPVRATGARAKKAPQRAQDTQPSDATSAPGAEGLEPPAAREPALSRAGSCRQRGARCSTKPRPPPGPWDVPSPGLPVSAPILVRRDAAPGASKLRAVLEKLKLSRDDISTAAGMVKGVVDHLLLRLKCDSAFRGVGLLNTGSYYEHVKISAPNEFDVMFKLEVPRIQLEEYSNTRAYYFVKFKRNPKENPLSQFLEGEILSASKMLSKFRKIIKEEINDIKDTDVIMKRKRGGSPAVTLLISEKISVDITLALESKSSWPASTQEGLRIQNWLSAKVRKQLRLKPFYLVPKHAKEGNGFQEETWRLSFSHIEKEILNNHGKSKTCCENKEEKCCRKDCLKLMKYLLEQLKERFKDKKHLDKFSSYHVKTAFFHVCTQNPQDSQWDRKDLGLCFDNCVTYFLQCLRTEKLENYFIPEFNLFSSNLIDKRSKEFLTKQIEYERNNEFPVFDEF"}, "source": "paper doi:10.1101/2023.01.03.522548", "experiment_in_all_cases": "co-IP", "key": {"[1]": {"target": "T1, Flag-IRF3 (UniProt Q14653)", "T1 sequence": "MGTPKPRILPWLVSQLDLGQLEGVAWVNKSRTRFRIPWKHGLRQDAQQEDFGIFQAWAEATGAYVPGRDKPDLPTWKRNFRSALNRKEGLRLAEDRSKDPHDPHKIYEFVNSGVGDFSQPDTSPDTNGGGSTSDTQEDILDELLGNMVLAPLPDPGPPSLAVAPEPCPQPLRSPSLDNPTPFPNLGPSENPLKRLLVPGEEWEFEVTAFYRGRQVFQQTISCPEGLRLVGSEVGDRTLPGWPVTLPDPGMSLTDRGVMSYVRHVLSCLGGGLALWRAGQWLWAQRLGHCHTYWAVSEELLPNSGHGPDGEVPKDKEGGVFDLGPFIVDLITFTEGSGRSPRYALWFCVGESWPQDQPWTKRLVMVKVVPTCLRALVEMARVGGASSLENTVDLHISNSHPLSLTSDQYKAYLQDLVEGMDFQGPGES"}, "[2]": {"target": "Flag-STING (UniProt Q86WV6)"}, "[3]": {"target": "Flag-cGAS (human) (UniProt Q8N884)"}}, "note": "Results are given in words; binding and its absence hold for the method and conditions named. In cells and extracts the contact can be indirect. Some entries that bind do so weakly or less than the wild type. Tags and fused reporters may be left off the sequences shown.", "data": [{"binder": "Myc-HERC5 (protein, UniProt Q9UII4 1-1024) MERRSRRKSRRNGRSTAGKAAATQPAKSPGAQLWLFPSAAGLHRALLRRVEVTRQLCCSPGRLAVLERGGAGVQVHQLLAGSGGARTPKCIKLGKNMKIHSVDQGAEHMLILSSDGKPFEYDNYSMKHLRFESILQEKKIIQITCGDYHSLALSKGGELFAWGQNLHGQLGVGRKFPSTTTPQIVEHLAGVPLAQISAGEAHSMALSMSGNIYSWGKNECGQLGLGHTESKDDPSLIEGLDNQKVEFVACGGSHSALLTQDGLLFTFGAGKHGQLGHNSTQNELRPCLVAELVGYRVTQIACGRWHTLAYVSDLGKVFSFGSGKDGQLGNGGTRDQLMPLPVKVSSSEELKLESHTSEKELIMIAGGNQSILLWIKKENSYVNLKRTIPTLNEGTVKRWIADVETKRWQSTKREIQEIFSSPACLTGSFLRKRRTTEMMPVYLDLNKARNIFKELTQKDWITNMITTCLKDNLLKRLPFHSPPQEALEIFFLLPECPMMHISNNWESLVVPFAKVVCKMSDQSSLVLEEYWATLQESTFSKLVQMFKTAVICQLDYWDESAEENGNVQALLEMLKKLHRVNQVKCQLPESIFQVDELLHRLNFFVEVCRRYLWKMTVDASENVQCCVIFSHFPFIFNNLSKIKLLHTDTLLKIESKKHKAYLRSAAIEEERESEFALRPTFDLTVRRNHLIEDVLNQLSQFENEDLRKELWVSFSGEIGYDLGGVKKEFFYCLFAEMIQPEYGMFMYPEGASCMWFPVKPKFEKKRYFFFGVLCGLSLFNCNVANLPFPLALFKKLLDQMPSLEDLKELSPDLGKNLQTLLDDEGDNFEEVFYIHFNVHWDRNDTNLIPNGSSITVNQTNKRDYVSKYINYIFNDSVKAVYEEFRRGFYKMCDEDIIKLFHPEELKDVIVGNTDYDWKTFEKNARYEPGYNSSHPTIVMFWKAFHKLTLEEKKKFLVFLTGTDRLQMKDLNNMKITFCCPESWNERDPIRALTCFSVLFLPKYSTMETVEEALQEAINNNRGFG", "values": [{"measurement": "binding", "setting": "[1]", "result": "binds"}, {"measurement": "binding", "setting": "[2]", "result": "no binding"}, {"measurement": "binding", "setting": "[3]", "result": "binds"}]}]}
